Measurements reported in patent US20170114124A1.
These are yes or no findings as the source states them, for the method shown. Binding seen in cells or lysates may run through a third protein. Some entries that bind do so weakly or less than the wild type.

Chains of the proteins cited; added tags and fusions are not shown. Residues count along the entry.
UniProt Q9Y6N7, residues 26-1651: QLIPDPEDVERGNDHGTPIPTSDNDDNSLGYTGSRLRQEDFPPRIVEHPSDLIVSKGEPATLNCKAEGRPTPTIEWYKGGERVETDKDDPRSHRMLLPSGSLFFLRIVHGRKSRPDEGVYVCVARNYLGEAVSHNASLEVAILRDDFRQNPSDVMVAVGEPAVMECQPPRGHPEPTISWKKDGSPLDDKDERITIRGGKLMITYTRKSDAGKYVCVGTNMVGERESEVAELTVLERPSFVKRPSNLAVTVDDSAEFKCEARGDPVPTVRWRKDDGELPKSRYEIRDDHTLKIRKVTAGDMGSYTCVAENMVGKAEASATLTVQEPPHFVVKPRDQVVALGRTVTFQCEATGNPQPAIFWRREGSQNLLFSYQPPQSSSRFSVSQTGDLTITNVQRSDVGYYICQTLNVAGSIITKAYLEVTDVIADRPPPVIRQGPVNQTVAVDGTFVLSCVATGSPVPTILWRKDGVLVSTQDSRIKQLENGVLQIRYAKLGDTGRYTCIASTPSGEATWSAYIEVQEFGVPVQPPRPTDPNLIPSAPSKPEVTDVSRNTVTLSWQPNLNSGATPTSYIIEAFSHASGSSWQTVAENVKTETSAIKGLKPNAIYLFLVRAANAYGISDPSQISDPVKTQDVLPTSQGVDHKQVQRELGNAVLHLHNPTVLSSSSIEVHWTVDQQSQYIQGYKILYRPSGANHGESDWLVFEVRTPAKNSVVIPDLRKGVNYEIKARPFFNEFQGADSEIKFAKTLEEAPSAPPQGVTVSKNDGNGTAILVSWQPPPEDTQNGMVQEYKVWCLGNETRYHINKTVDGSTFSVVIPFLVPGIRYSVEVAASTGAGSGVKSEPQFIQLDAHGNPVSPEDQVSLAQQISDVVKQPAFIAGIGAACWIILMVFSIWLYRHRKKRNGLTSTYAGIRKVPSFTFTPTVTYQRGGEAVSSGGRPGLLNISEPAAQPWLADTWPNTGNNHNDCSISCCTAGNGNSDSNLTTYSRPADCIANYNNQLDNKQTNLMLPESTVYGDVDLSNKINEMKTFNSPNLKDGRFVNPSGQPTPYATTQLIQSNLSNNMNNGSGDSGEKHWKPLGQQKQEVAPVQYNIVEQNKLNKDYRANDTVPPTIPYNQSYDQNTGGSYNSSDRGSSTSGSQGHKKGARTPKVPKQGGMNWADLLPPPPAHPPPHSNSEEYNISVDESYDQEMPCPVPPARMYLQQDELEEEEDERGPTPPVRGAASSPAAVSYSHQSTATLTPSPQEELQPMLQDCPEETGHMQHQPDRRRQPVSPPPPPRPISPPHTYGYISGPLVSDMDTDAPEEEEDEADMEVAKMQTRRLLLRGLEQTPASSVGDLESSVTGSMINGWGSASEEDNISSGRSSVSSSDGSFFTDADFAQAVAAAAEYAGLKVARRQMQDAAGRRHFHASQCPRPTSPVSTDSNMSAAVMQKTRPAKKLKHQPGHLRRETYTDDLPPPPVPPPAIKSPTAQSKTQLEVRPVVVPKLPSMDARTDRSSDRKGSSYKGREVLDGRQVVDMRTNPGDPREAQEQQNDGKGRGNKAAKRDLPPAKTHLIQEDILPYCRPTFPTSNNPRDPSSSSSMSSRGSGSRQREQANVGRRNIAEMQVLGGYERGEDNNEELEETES
UniProt Q13459, residues 2-2157: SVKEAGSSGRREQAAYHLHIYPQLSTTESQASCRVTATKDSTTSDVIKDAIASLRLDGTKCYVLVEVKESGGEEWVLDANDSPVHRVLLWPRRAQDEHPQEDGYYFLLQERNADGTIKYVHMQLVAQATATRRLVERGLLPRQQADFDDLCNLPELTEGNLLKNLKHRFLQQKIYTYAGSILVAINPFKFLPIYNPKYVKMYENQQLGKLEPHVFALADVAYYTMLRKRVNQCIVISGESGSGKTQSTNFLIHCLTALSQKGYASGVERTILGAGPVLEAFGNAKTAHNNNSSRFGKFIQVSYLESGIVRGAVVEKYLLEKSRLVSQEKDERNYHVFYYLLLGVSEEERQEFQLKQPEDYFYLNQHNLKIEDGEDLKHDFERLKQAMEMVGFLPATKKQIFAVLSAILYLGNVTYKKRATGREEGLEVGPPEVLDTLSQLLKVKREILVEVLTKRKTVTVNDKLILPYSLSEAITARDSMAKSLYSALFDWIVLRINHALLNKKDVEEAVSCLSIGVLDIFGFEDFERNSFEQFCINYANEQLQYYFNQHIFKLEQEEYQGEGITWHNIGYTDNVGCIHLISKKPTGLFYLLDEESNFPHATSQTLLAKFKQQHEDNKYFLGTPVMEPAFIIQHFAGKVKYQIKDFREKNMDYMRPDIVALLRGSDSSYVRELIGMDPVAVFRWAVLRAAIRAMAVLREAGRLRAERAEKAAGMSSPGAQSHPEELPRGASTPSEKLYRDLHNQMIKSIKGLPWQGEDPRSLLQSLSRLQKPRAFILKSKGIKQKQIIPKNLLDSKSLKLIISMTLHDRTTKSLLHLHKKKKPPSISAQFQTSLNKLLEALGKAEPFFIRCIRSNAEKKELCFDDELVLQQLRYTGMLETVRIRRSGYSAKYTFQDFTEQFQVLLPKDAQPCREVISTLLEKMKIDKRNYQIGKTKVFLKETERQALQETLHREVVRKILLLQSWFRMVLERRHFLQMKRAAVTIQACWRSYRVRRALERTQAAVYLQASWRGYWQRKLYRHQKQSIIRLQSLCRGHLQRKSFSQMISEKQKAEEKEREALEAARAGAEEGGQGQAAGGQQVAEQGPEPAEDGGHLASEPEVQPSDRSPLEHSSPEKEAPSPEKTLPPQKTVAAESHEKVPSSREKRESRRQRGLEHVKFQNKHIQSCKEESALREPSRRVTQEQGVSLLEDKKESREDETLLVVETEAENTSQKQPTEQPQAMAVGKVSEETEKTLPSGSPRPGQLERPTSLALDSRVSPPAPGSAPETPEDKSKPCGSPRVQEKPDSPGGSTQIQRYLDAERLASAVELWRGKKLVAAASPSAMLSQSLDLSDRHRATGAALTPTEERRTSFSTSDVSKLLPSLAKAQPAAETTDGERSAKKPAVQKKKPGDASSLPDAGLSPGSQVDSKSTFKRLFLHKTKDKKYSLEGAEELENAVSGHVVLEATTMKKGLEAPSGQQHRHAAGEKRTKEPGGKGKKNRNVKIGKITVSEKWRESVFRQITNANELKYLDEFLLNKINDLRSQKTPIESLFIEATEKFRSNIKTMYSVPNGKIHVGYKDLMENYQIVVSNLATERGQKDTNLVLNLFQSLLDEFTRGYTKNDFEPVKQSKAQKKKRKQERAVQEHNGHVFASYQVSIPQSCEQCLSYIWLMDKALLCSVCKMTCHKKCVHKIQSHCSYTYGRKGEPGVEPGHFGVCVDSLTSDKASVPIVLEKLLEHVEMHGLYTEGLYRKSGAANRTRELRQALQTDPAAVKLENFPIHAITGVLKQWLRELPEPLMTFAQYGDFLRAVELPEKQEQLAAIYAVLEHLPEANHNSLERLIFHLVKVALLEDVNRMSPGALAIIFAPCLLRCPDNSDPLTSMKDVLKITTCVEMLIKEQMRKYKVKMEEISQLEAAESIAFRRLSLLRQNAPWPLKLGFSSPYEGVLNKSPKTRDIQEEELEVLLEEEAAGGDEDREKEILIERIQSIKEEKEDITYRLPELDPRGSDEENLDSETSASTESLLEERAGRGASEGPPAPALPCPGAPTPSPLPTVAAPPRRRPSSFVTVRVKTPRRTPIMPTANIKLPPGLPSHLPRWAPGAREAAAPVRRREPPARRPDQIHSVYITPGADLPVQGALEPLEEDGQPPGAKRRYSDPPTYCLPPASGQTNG

Experiments:
[1] = molecular target: Robo1, endogenous protein of H1299 lung cancer cells (human) (UniProt Q9Y6N7); experiment: co-immunoprecipitation of endogenous proteins, H1299 lysates
[2] = molecular target: Robo1, endogenous protein of H1299 lung cancer cells (human) (UniProt Q9Y6N7); experiment: co-immunoprecipitation of endogenous proteins, H1299 lysates, figure legend

binding [1]: binds
binding [2]: binds
Substance: Myo9b (Myosin IXb), endogenous protein (from UniProt Q13459 2-2157)
